Assay results taken from patent publication US20170189504A1, “NOVEL PEPTIDES AND COMBINATION OF PEPTIDES FOR USE IN IMMUNOTHERAPY AGAINST VARIOUS CANCERS” (immatics biotechnologies GmbH, priority 2015, published 2017).

Legend:
source genes (mRNA) [1] = experiment: Gene and exon expression of source genes, TCGA tumor samples compared with normal tissue samples (Lonsdale, 2013) (Table 17); design: species or system human; settings: for Over-expression category of source gene (target coverage), BLCA: BLCA = Bladder urothelial carcinoma (N = 408); for Over-expression category of source gene (target coverage), BRCA: BRCA = Breast cancer (N = 1104), tumors more than 2-fold above highest 75% percentile of normal tissues; for Over-expression category of source gene (target coverage), CHOL: CHOL = Cholangiocarcinoma (N = 36); for Over-expression category of source gene (target coverage), COAD: COAD = Colon and rectal adenocarcinoma (N = 462); for Over-expression category of source gene (target coverage), DLBC: DLBC = Lymphoid neoplasm diffuse large B-cell lymphoma (N = 48); for Over-expression category of source gene (target coverage), ESCA: ESCA = Esophageal cancer (N = 185); for Over-expression category of source gene (target coverage), GBM: GBM = Glioblastoma multiforme (N = 169); for Over-expression category of source gene (target coverage), LAML: LAML = Acute Myeloid Leukemia (N = 173); for Over-expression category of source gene (target coverage), LGG: LGG = Lower grade glioma (N = 534); for Over-expression category of source gene (target coverage), LIHC: LIHC = Liver hepatocellular carcinoma (N = 374); for Over-expression category of source gene (target coverage), LUAD: LUAD = Lung adenocarcinoma (N = 517); for Over-expression category of source gene (target coverage), LUSC: LUSC = Lung squamous cell carcinoma (N = 503); for Over-expression category of source gene (target coverage), OV: OV = Ovarian serous cystadenocarcinoma (N = 309); for Over-expression category of source gene (target coverage), PAAD: PAAD = Pancreatic ductal adenocarcinoma (N = 179); for Over-expression category of source gene (target coverage), READ: READ = Colon and rectal adenocarcinoma (N = 167); for Over-expression category of source gene (target coverage), SKCM: SKCM = Skin cutaneous melanoma (N = 473); for Over-expression category of source gene (target coverage), STAD: STAD = Stomach adenocarcinoma (N = 415); for Over-expression category of source gene (target coverage), UCEC: UCEC = Uterine corpus endometrial carcinoma (N = 546)
HLA-A*02 = experiment: Identification and relative LC-MS quantitation of HLA-A*02-presented tumor-associated peptides on tissue samples (presentation profiles, Tables 13A, 13B, 15, FIG. 1); design: species or system human; key to Presentation score NHL / Presentation score CLL / Presentation score BRCA / Presentation score AML / Presentation score GB / Presentation score NSCLC / Presentation score GBC_CCC / Presentation score UEC / Presentation score MEL / Presentation score OSCAR / Presentation score GC / Presentation score UBC / Presentation score OC / Presentation score RCC / Presentation score CRC / Presentation score PCA / Presentation score HCC / Presentation score PC / Presentation score SCLC: specifically presented on tumors (++++); very highly over-presented on tumors compared to a panel of normal tissues (+++); highly over-presented on tumors compared to a panel of normal tissues (++); over-presented on tumors compared to a panel of normal tissues (+); settings: for Presentation score GB: glioblastoma (N = 41) vs panel of normal tissues (N = 262); for Presentation score NHL: non-Hodgkin lymphoma (N = 18) vs panel of normal tissues (N = 262); for Presentation score UEC: uterine cancer (N = 15) vs panel of normal tissues (N = 262); for Peptide Presentation on cancer entities: Table 13A, HLA-A*02-binding tumor-associated peptides, cancer entities on which the peptide was found presented
source genes (mRNA) [2] = experiment: Expression profiling of source genes by in-house RNASeq of tumor and normal tissues (Table 18, FIG. 2); design: species or system human; key: very highly over-expressed in tumors compared to a panel of normal tissues (+++); highly over-expressed in tumors compared to a panel of normal tissues (++); over-expressed in tumors compared to a panel of normal tissues (+); settings: source gene of peptide; for Expression score OC: ovarian cancer (N = 12) vs panel of normal tissues

291: peptide found in TOP2A (gene looked up) (KLDETGNSL; listed as Homo sapiens) [compound 291]
Over-expression category of source gene (target coverage), BLCA (source genes (mRNA) [1]; same cutoff): B (>= 20% of tumors above the cutoff, but <50%)
Over-expression category of source gene (target coverage), BRCA (source genes (mRNA) [1]): A (>=50% of tumors above the cutoff)
Over-expression category of source gene (target coverage), CHOL (source genes (mRNA) [1]; same cutoff): C (>=5% of tumors above the cutoff, but <20%)
Over-expression category of source gene (target coverage), COAD (source genes (mRNA) [1]; same cutoff): A (>=50% of tumors above the cutoff)
Over-expression category of source gene (target coverage), DLBC (source genes (mRNA) [1]; same cutoff): B (>= 20% of tumors above the cutoff, but <50%)
Over-expression category of source gene (target coverage), ESCA (source genes (mRNA) [1]; same cutoff): A (>=50% of tumors above the cutoff)
Over-expression category of source gene (target coverage), GBM (source genes (mRNA) [1]; same cutoff): B (>= 20% of tumors above the cutoff, but <50%)
Over-expression category of source gene (target coverage), LAML (source genes (mRNA) [1]; same cutoff): A (>=50% of tumors above the cutoff)
Over-expression category of source gene (target coverage), LGG (source genes (mRNA) [1]; same cutoff): C (>=5% of tumors above the cutoff, but <20%)
Over-expression category of source gene (target coverage), LIHC (source genes (mRNA) [1]; same cutoff): C (>=5% of tumors above the cutoff, but <20%)
Over-expression category of source gene (target coverage), LUAD (source genes (mRNA) [1]; same cutoff): B (>= 20% of tumors above the cutoff, but <50%)
Over-expression category of source gene (target coverage), LUSC (source genes (mRNA) [1]; same cutoff): A (>=50% of tumors above the cutoff)
Over-expression category of source gene (target coverage), OV (source genes (mRNA) [1]; same cutoff): C (>=5% of tumors above the cutoff, but <20%)
Over-expression category of source gene (target coverage), PAAD (source genes (mRNA) [1]; same cutoff): C (>=5% of tumors above the cutoff, but <20%)
Over-expression category of source gene (target coverage), READ (source genes (mRNA) [1]; same cutoff): A (>=50% of tumors above the cutoff)
Over-expression category of source gene (target coverage), SKCM (source genes (mRNA) [1]; same cutoff): B (>= 20% of tumors above the cutoff, but <50%)
Over-expression category of source gene (target coverage), STAD (source genes (mRNA) [1]; same cutoff): A (>=50% of tumors above the cutoff)
Over-expression category of source gene (target coverage), UCEC (source genes (mRNA) [1]; same cutoff): B (>= 20% of tumors above the cutoff, but <50%)
Presentation score AML (HLA-A*02; HLA-A*02 peptides, acute myeloid leukemia (N = 18) vs panel of normal tissues (N = 262)): ++
Presentation score GB (HLA-A*02; HLA-A*02 peptides): +
Presentation score HCC (HLA-A*02; HLA-A*02 peptides, hepatocellular carcinoma (N = 16) vs panel of normal tissues (N = 262)): +
Presentation score MEL (HLA-A*02; HLA-A*02 peptides, melanoma (N = 7) vs panel of normal tissues (N = 262)): +++
Presentation score NHL (HLA-A*02; HLA-A*02 peptides): ++
Presentation score OC (HLA-A*02; HLA-A*02 peptides, ovarian cancer (N = 20) vs panel of normal tissues (N = 262)): ++
Presentation score SCLC (HLA-A*02; HLA-A*02 peptides, small cell lung cancer (N = 19) vs panel of normal tissues (N = 262)): +
Presentation score UEC (HLA-A*02; HLA-A*02 peptides): +++
Peptide Presentation on cancer entities (HLA-A*02): GB, GC, NSCLC, HCC, CLL, OSCAR, OC, SCLC, UBC, UEC, MEL, RCC, CRC, PC, AML, NHL
Expression score BRCA (source genes (mRNA) [2]; BRCA tumors vs panel of normal tissues): ++
Expression score AML (source genes (mRNA) [2]; acute myeloid leukemia (N = 11) vs panel of normal tissues): +
Expression score CRC (source genes (mRNA) [2]; colorectal cancer (N = 20) vs panel of normal tissues): ++
Expression score OSCAR (source genes (mRNA) [2]; esophageal cancer incl. gastric-esophageal junction (N = 11) vs panel of normal tissues): +++
Expression score GBC_CCC (source genes (mRNA) [2]; gallbladder adenocarcinoma and cholangiocarcinoma (N = 3) vs panel of normal tissues): +
Expression score GC (source genes (mRNA) [2]; gastric cancer (N = 11) vs panel of normal tissues): +
Expression score GB (source genes (mRNA) [2]; glioblastoma (N = 24) vs panel of normal tissues): ++
Expression score NHL (source genes (mRNA) [2]; non-Hodgkin lymphoma (N = 10) vs panel of normal tissues): +++
Expression score NSCLC (source genes (mRNA) [2]; non-small cell lung cancer (N = 11) vs panel of normal tissues): +++
Expression score OC (source genes (mRNA) [2]): ++
Expression score PC (source genes (mRNA) [2]; pancreatic cancer (N = 26) vs panel of normal tissues): +
Expression score SCLC (source genes (mRNA) [2]; small cell lung cancer (N = 10) vs panel of normal tissues): +++
Expression score UBC (source genes (mRNA) [2]; urinary bladder cancer (N = 10) vs panel of normal tissues): +
Expression score UEC (source genes (mRNA) [2]; uterine cancer (N = 10) vs panel of normal tissues): +

292: peptide found in SLC35E1 (gene looked up) (GMMTAILGV; listed as Homo sapiens) [compound 292]
Over-expression category of source gene (target coverage), BLCA (source genes (mRNA) [1]; same cutoff): A (>=50% of tumors above the cutoff)
Over-expression category of source gene (target coverage), BRCA (source genes (mRNA) [1]): A (>=50% of tumors above the cutoff)
Over-expression category of source gene (target coverage), CHOL (source genes (mRNA) [1]; same cutoff): A (>=50% of tumors above the cutoff)
Over-expression category of source gene (target coverage), COAD (source genes (mRNA) [1]; same cutoff): A (>=50% of tumors above the cutoff)
Over-expression category of source gene (target coverage), DLBC (source genes (mRNA) [1]; same cutoff): B (>= 20% of tumors above the cutoff, but <50%)
Over-expression category of source gene (target coverage), ESCA (source genes (mRNA) [1]; same cutoff): A (>=50% of tumors above the cutoff)
Over-expression category of source gene (target coverage), GBM (source genes (mRNA) [1]; same cutoff): A (>=50% of tumors above the cutoff)
Over-expression category of source gene (target coverage), KICH (source genes (mRNA) [1]; KICH = Kidney chromophobe (N = 66), same cutoff): A (>=50% of tumors above the cutoff)
Over-expression category of source gene (target coverage), KIRC (source genes (mRNA) [1]; KIRC = Clear cell kidney carcinoma (N = 534), same cutoff): A (>=50% of tumors above the cutoff)
Over-expression category of source gene (target coverage), KIRP (source genes (mRNA) [1]; KIRP = Papillary kidney carcinoma (N = 291), same cutoff): A (>=50% of tumors above the cutoff)
Over-expression category of source gene (target coverage), LAML (source genes (mRNA) [1]; same cutoff): A (>=50% of tumors above the cutoff)
Over-expression category of source gene (target coverage), LGG (source genes (mRNA) [1]; same cutoff): A (>=50% of tumors above the cutoff)
Over-expression category of source gene (target coverage), LIHC (source genes (mRNA) [1]; same cutoff): C (>=5% of tumors above the cutoff, but <20%)
Over-expression category of source gene (target coverage), LUAD (source genes (mRNA) [1]; same cutoff): A (>=50% of tumors above the cutoff)
Over-expression category of source gene (target coverage), LUSC (source genes (mRNA) [1]; same cutoff): A (>=50% of tumors above the cutoff)
Over-expression category of source gene (target coverage), OV (source genes (mRNA) [1]; same cutoff): A (>=50% of tumors above the cutoff)
Over-expression category of source gene (target coverage), PAAD (source genes (mRNA) [1]; same cutoff): A (>=50% of tumors above the cutoff)
Over-expression category of source gene (target coverage), PRAD (source genes (mRNA) [1]; PRAD = Prostate adenocarcinoma (N = 498), same cutoff): A (>=50% of tumors above the cutoff)
Over-expression category of source gene (target coverage), READ (source genes (mRNA) [1]; same cutoff): A (>=50% of tumors above the cutoff)
Over-expression category of source gene (target coverage), SKCM (source genes (mRNA) [1]; same cutoff): A (>=50% of tumors above the cutoff)
Over-expression category of source gene (target coverage), STAD (source genes (mRNA) [1]; same cutoff): A (>=50% of tumors above the cutoff)
Over-expression category of source gene (target coverage), UCEC (source genes (mRNA) [1]; same cutoff): A (>=50% of tumors above the cutoff)
Presentation score CRC (HLA-A*02; HLA-A*02 peptides, colorectal cancer (N = 28) vs panel of normal tissues (N = 262)): +++
Presentation score GBC_CCC (HLA-A*02; HLA-A*02 peptides, gallbladder adenocarcinoma and cholangiocarcinoma (N = 6) vs panel of normal tissues (N = 262)): +++
Presentation score GB (HLA-A*02; HLA-A*02 peptides): +++
Presentation score NHL (HLA-A*02; HLA-A*02 peptides): ++
Presentation score NSCLC (HLA-A*02; HLA-A*02 peptides, non-small cell lung cancer (N = 90) vs panel of normal tissues (N = 262)): +++
Presentation score UEC (HLA-A*02; HLA-A*02 peptides): +++
Peptide Presentation on cancer entities (HLA-A*02): GB, GC, NSCLC, HCC, PCA, CLL, UEC, GBC_CCC, RCC, CRC, PC, AML, NHL
Expression score OC (source genes (mRNA) [2]): +

For some assays here: Expression grades refer to the transcript from which the peptide derives; gene names, where given, were looked up from the sequence.
